Test results from PubChem BioAssay AID493014 (National Center for Advancing Translational Sciences (NCATS), 2011).
The other results are listed elsewhere or left out. The main result of the screen is listed elsewhere. These columns were measured beside it and carry no call. Compounds called inactive in the main read-out are mostly missing here. Potencies come from curve fits of mixed quality, noted in brackets.

Assay: qHTS Assay to Find Inhibitors of Chronic Active B-Cell Receptor Signaling
Settings: ABC-DLBCL IkBa-CBG/CBR reporter, luminescence ratio (green luciferase fused to IkBa over red control in TMD8 lymphoma cells), 4 h
How it was run: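 Doxycycline induced both beetle luciferases in TMD8 lymphoma cells; IKK-driven degradation limits the IkappaBalpha-fused green signal, while red luminescence normalises for cell number and nonspecific effects. Compounds tested up to 46 uM, 4 hrs.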

[1] = measured here: CBR red luminescence, cell number
[2] = measured here: IkBa-CBG green luminescence

| SMILES | AC50 [1] | AC50 [2] |
| --- | --- | --- |
| CCOC(=O)C1CCN(C(c2cc(OC)c(OC)c(OC)c2)c2sc3nc(C)nn3c2O)CC1 (stereo not drawn) | 32.6 µM [rising, partial curve, poor fit] | – |
| COc1ccc(C(=O)NCc2nnc(SCC(=O)N3CCC(C)CC3)o2)cc1OC | 20.6 µM [rising, partial curve, poor fit] | – |
| Cc1ccc(NC(=S)NC(=O)c2c(-c3ccccc3Cl)noc2C)cc1 | 6.31 µM [falling, single point] | – |
| COc1ccc(/C=C/C=C2\NC(=S)NC2=O)cc1 | 12.6 µM [rising, partial curve] | – |
| CC(C)n1c(SCC(=O)N2CCCC2)nc2c1c(=O)n(C)c(=O)n2C | 7.94 µM [rising, partial curve, poor fit] | – |
| CCOC(=O)c1ccc(COC(=O)CNC(=O)CNC(=O)c2ccc(OC)cc2)o1 | 20.6 µM [rising, partial curve, poor fit] | – |
| O=C(COC(=O)c1n[nH]c2ccccc12)Nc1ccc([N+](=O)[O-])cc1 | 2.06 µM [rising, full curve] | – |
| O=C(c1ccc(Cl)cc1)C1C2C(=O)N(c3ccccc3)C(=O)C2C2CCCN21 (stereo not drawn) | 20 µM [falling, partial curve, poor fit] | – |
| O=[N+]([O-])c1cc(C(F)(F)F)ccc1NCCOc1ccccc1 | 2.59 µM [rising, full curve] | – |
| N#Cc1nc(-c2cccs2)oc1NCc1ccccc1 | 6.31 µM [rising, partial curve, poor fit] | – |
| COc1cccc(CNC(=O)Cc2ccc(-n3c(=O)[nH]c4ccccc4c3=O)cc2)c1 | 23.1 µM [rising, single point] | 32.6 µM [falling, partial curve, poor fit] |
| N#Cc1ccc(C(=O)NCC2CCCCC2)cc1 | 11.2 µM [rising, partial curve, poor fit] | – |
| COc1ccc(Cl)cc1NC(=O)c1cnc2sccn2c1=O | 1.3 µM [rising, full curve, poor fit] | – |
| Cn1c(CC(=O)Nc2ccc(F)cc2)c(Sc2ccccc2)c2ccccc21 | 0.82 µM [falling, full curve, poor fit] | – |
| COc1ccc(C2CC(=O)c3cnn(-c4nc(C)cc(C)n4)c3C2)cc1OC (stereo not drawn) | 0.316 µM [rising, full curve, poor fit] | – |
| COc1ccc(C2=NN(c3ccc(C(=O)O)cc3)C(c3ccc(OC)c(OC)c3)C2)cc1 (stereo not drawn) | 7.94 µM [falling, partial curve] | 35.5 µM [falling, single point] |
| CC(C)N1C(=O)S/C(=C/c2ccc(Sc3nc4ccccc4[nH]3)o2)C1=O | 5.17 µM [rising, full curve, poor fit] | – |
| Cc1ccc(S(=O)(=O)NC(=NCC(=O)O)c2ccc(F)cc2)cc1 | 0.0082 µM [falling, full curve, poor fit] | – |
| COc1ccccc1/C=C/C(=O)OCC(=O)NC(=O)NC1CCCC1 | 13 µM [falling, single point] | – |
| O=C(C1COc2ccccc2O1)N1CCN(c2ccc(F)cc2)CC1 (stereo not drawn) | 20 µM [rising, single point] | – |
| CCOC(=O)c1c(C)[nH]c(C2=NNC(=Nc3ccccc3OC)SC2)c1C | 11.6 µM [falling, partial curve] | – |

| SMILES | AC50 [1] | AC50 [2] |
| --- | --- | --- |
| c1ccc2c(CSCCc3ccncc3)cccc2c1 | 14.1 µM [rising, partial curve, poor fit] | – |
| COc1cc2c(cc1OC)C(c1ccccc1F)NCC2 (stereo not drawn) | 12.6 µM [rising, partial curve, poor fit] | – |
| CCCNC(=O)c1cc(S(=O)(=O)N2CCc3ccccc32)ccc1F | 0.731 µM [falling, partial curve, poor fit] | – |
| Cc1ccsc1/C=N\NC(=O)c1cc(C(C)(C)C)[nH]n1 | 28.2 µM [falling, single point] | – |
| COc1ccc(C(=O)Nc2ccc(C)cc2C(=O)c2ccccc2)cc1 | 29.1 µM [rising, single point] | – |
| CCCCCc1cc(=O)oc2c(C(CCN3CCCC(C)C3)c3ccc(N(C)C)cc3)c(OC)cc(OC)c12 (stereo not drawn) | 2.82 µM [rising, single point] | – |
| CC1CCCN(C(=O)c2cc(F)c(F)cc2Cl)C1 (stereo not drawn) | 4.11 µM [rising, full curve] | – |
| CCOc1ccc(N/C(SCc2cccc([N+](=O)[O-])c2)=C(/C#N)C(N)=O)cc1 | 25.1 µM [falling, single point] | – |
| COc1ccccc1OCCCOc1ccc([N+](=O)[O-])cc1Cl | 1.41 µM [rising, full curve] | – |
| CCc1cccc(OCC(=O)Nc2ccc(C)c(S(=O)(=O)N3CCCCCC3)c2)c1 | 23.1 µM [rising, partial curve, poor fit] | – |
| O=C(Cn1ncc2c3ccccc3n(Cc3ccccc3)c2c1=O)NCCN1CCOCC1 | 15.8 µM [falling, single point] | – |
| CC(=O)c1cnc2cc(-c3ccc(Cl)cc3)nn2c1C | 32.6 µM [rising, single point] | – |
| Oc1c(/C=N/c2ccccn2)sc2ccccc12 | 8.91 µM [falling, partial curve, poor fit] | – |
| Clc1ccc(OCc2cc(-c3ccccc3)no2)cc1Cl | 3.26 µM [falling, single point] | – |
| COc1cc(/C=C/C(=O)c2ccccc2O)cc(OC)c1OC | 3.98 µM [rising, partial curve] | – |
| COc1ccc(C2CCCN2C(=O)Nc2cccc(C(C)=O)c2)cc1OC (stereo not drawn) | 6.51 µM [falling, single point] | – |
| Cc1c(CC(=O)O)c(=O)oc2c(C)c(OCc3c(F)cccc3Cl)ccc12 | 35.5 µM [falling, single point] | – |
| COc1ccc(N2CCN(c3nc(Nc4ccc(C)c(F)c4)nc(N4CCCC4)n3)CC2)cc1 | 6.31 µM [rising, single point] | – |
| O=C(NC(=O)c1ccc(Cl)cc1)Nc1ccc(-c2cnco2)cc1 | 17.8 µM [falling, single point] | – |
| COc1ccc(C(=O)Nc2ccccc2C(=O)N/N=C/c2ccccn2)cc1OC | 10 µM [falling, partial curve, poor fit] | – |
| Cc1c(CCO)c(=O)[nH]n1S(=O)(=O)c1ccccc1 | 11.2 µM [rising, partial curve, poor fit] | – |

Entries of single compounds from above.
`CCc1cccc(OCC(=O)Nc2ccc(C)c(S(=O)(=O)N3CCCCCC3)c2)c1` in the list: AC50 [1]: 23.1 µM [rising, partial curve, poor fit]
`COc1ccc(C(=O)Nc2ccc(C)cc2C(=O)c2ccccc2)cc1` in the list: AC50 [1]: 29.1 µM [rising, single point]
`COc1ccccc1OCCCOc1ccc([N+](=O)[O-])cc1Cl` in the list: AC50 [1]: 1.41 µM [rising, full curve]

Next results.

| SMILES | AC50 [1] | AC50 [2] |
| --- | --- | --- |
| S=C(NCCc1ccccn1)Nc1ccc(Cl)cc1 | 7.31 µM [rising, partial curve, poor fit] | – |
| CCN(CC)c1ccc2cc(-c3nc(-c4ccc(OC)cc4)cs3)c(=O)oc2c1 | 3.66 µM [falling, single point] | – |
| CN(C)/C(CN1CCOCC1)=C1\N=C(c2ccccc2)OC1=O | 3.16 µM [falling, partial curve, poor fit] | – |
| Cc1cc(C)n2nc(CC(=O)NNC(=O)COc3ccccc3)nc2n1 | 1.12 µM [rising, partial curve, poor fit] | – |
| Cc1ccc(NC(=O)COc2cccc(Oc3ccccc3)c2)cc1S(=O)(=O)N1CCOCC1 | 13 µM [rising, partial curve] | 16.4 µM [falling, partial curve, poor fit] |
| CCOc1ncccc1C(=O)NCc1ccc(C)cc1 | 5.8 µM [falling, full curve] | – |
| CCOC(=O)c1c(NC(=O)CSc2ncccn2)sc2c1CCN(Cc1ccccc1)C2 | 29.1 µM [falling, single point] | 20.6 µM [rising, partial curve, poor fit] |
| CCOc1ccc(-c2cc(C(=O)NN=C3CCN(C)CC3)[nH]n2)cc1 | 6.31 µM [rising, single point] | – |
| COc1cc(-c2cccs2)cc(=O)c2c(C)oc(C)c12 | 12.6 µM [falling, partial curve, poor fit] | – |
| CCOC(=O)c1c(C)[nH]c(C)c1C(=O)CSc1nnc(-c2ccc(OC(F)F)cc2)o1 | 13 µM [rising, partial curve] | 23.1 µM [falling, single point] |
| Cc1ccc2[nH]c(CCN(C)C)c(CC#N)c2c1 | 4.11 µM [falling, full curve, poor fit] | – |
| O=C(Cc1cccc(F)c1)Nc1ccc2c(c1)CCC2 | 0.355 µM [rising, full curve] | – |
| Oc1oc(-c2ccco2)nc1C=Nc1ccccc1 | 5.17 µM [falling, partial curve] | 3.66 µM [rising, partial curve, poor fit] |
| Cc1nc(SCC(=O)CC(=O)OC(C)C)c(C#N)c(C)c1C | 2.31 µM [rising, partial curve, poor fit] | – |
| O=C(NNC1=NS(=O)(=O)c2ccccc21)c1ccc(Cl)cc1 | 14.1 µM [falling, partial curve] | – |
| CNC(=O)CSCc1c(F)cccc1Cl | 13 µM [rising, partial curve, poor fit] | – |
| Oc1ccc(/C=N/N2CCN(C3c4ccccc4-c4ccccc43)CC2)c(O)c1 | 35.5 µM [falling, single point] | – |
| COc1ccccc1C(C[N+](=O)[O-])c1c(N)n(C)c(=O)n(C)c1=O (stereo not drawn) | 7.08 µM [falling, partial curve] | – |
| O=C(C(=O)N1CCN(c2ccc(F)cc2)CC1)N1CCCCC1 | 3.16 µM [rising, partial curve, poor fit] | – |
| CCc1ccc(C2C(C#N)=C(N)C(C#N)(C#N)C3=CCC(C(C)(C)C)CC32)cc1 (stereo not drawn) | 20.6 µM [falling, partial curve, poor fit] | – |
